Assay results reported in patent US20220064286A1.
Where a chain is given by its changes, count along the chain named. Numbers in names are those of the source. Results are given in words; binding and its absence hold for the method and conditions named. Some entries that bind do so weakly or less than the wild type.

B1: h6B2.L2H5 (antibody, V domains shown)
VH: EVTLKESGPALVKPTQTLTLTCTFSGFSLSTYGMGVSWIRQPPGKALEWLASIWWNGNTYYNPSLKSRLTITKDTSKNQVVLTMTNMDPVDTATYYCAHTGGAVITWFAYWGQGTLVTVSS
VL: DIQMTQSPSSLSASVGDRVTITCKASQSVGKNIAWYQQKPGKAPKLLIYYASNRYTGVPSRFSGSGSGTDFTFTISSLQPEDIATYYCQHIYNSPYPFGQGTKVEIK
B2: h10A5.L4H4 (antibody, V domains shown)
VH: B1 VH with S30T, K66R
VL: EIVMTQSPATLSVSPGERATLSCKASQSVGKNIAWYQQKPGQAPRLLIYYASNRYTGIPARFSGSGSGTEFTLTISSLQSEDFAVYYCQHIYNSPYPFGQGTKVEIK
B3: 4.1A4.C96S.Q1E (antibody, V domains shown)
VH: EVQLVQSGSELKKPGASVKVSCKASGYTLTNYPMNWVRQAPGRGLEWMGWINTNTGSPAYAQDFTERFVFSLDTSVTTAYLQISSLKAEDTAVYYCARTAITSVYHFDYWGQGTLVTVSS
VL: DIQLTQSPSFLSASVGDRVTITCRASQGISSYLAWYQQKPGKAPRVLIYGATTLQSGVPSRFSGSESGTEFTLTISSLQPEDLATYYCQKLNSHPSSFGQGTKVEIK
B4: 7.4A3.C96S.Q1E (antibody, V domains shown)
VH: EVQLVQSGSDLKKPGASVRVSCKASGYTFTSYPMNWVRQAPGHGLEWMGWINTNTGNPTYVQGFTGRFVFSLDTSVNTAYLQISSLKAEDTAVYFCARTGGHTYDSYAFDVWGQGTMVTVSS
VL: DIQLTQSPTFLSASVGDRVTITCRASQVISSSLAWYQQNPGKAPKLLIYAASTLQSGVPSRFSGSGSGTEFTLTISSLQPEDFVTYYCQHLHGYPSNFGQGTKVEIK
B5: 4.1A4 (antibody, V domains shown)
VH: B3 VH with E1Q
VL: B3 VL with S96C
B6: rat15C8 (antibody, V domains shown)
VH: EVQLQQSGPELQRPGASVKLSCKASGYTFTEHSIYWLKQRPKQSLEIIGRIDPKNGRTYFVDKFKNRATLTTNTSSNTAYMQLSSLTSEDTAIYFCARIDGFYFDFWGQGVMVTASS
VL: NIHLTQSPSLLSASVGDRVTLSCKGSQNVNKYLVWYQQKLGEAPKLLIYSTDNLQSGIPSRFSGSGSGTDYTLTISSLQPEDAATYFCYQYNNGFTFGSGTKLEIK
B7: rat7E7 (antibody, V domains shown)
VH: B6 VH with S25T, H32Y, L37V, F60Y, T72A, N73D, I93T, A97T, D100Y
VL: B6 VL with S50N
B8: 7.4A3 (antibody, V domains shown)
VH: B4 VH with E1Q
VL: B4 VL with S96C
B9: rat10A5 (antibody, V domains shown)
VH: QVSLKESGPGILQPSHTLSLTCSFSGFSLTTYGMGVSWIRQPSEKGLEWLASIWWNGNTYYNPSLRSRLTVSKDTSNDQAFLNVTSVDTTDTATYYCAHTGGAVITWFAYWGQGTLVTVSS
VL: NIVMTQSPKSMSISIGDRVTMNCKASQSVGKNIAWYQQKTGQSPQLLIYYASNRYTGVPDRFTGGGSGTDFTLTINSVQAEDAAFFYCQHIYNSPYPFGTGTKLEIK
B10: rat6B2 (antibody, V domains shown)
VH: B9 VH with T30S, R66K, T75A
VL: B9 VL with I15V, T40P, Q45K, S77T
B11: 7.4A3.C96Y.Q1E (antibody, V domains shown)
VH: B4 VH
VL: B4 VL with S96Y

molecular target: cynomolgus monkey (cyno) TIGIT protein (cynomolgus monkey); test: SPR

binding, binds:
B1
B2
B3
B4

molecular target: cynomolgus monkey (cyno) TIGIT protein (cynomolgus monkey); test: ELISA, hybridoma supernatant

binding, binds:
B5
B6
B7
B8
B9
B10

molecular target: cynomolgus TIGIT on CHO cells (cynomolgus monkey); test: FACS on CHO cells expressing cyno TIGIT, FITC anti-hIgG detection

binding, binds:
B3
B5
B6
B7
B8
B4
B11
B9
B10

molecular target: cynomolgus TIGIT on CHO cells (cynomolgus monkey); test: FACS blocking assay: labelled PVR-Fc (blocked ligand) on CHO cells expressing cyno TIGIT

binding, binds:
B6
B7
B9
B10

molecular target: cynomolgus TIGIT on CHO cells (cynomolgus monkey); test: FACS blocking assay: labelled PVR-Fc (blocked ligand; text: cyPVR, scheme of FIG. 4A prints hPVR.Fc) on CHO cells expressing cyno TIGIT

binding, binds:
B3
B5
B8
B4
B11
